Laboratory results from PMC3324469, “Preparation and Characterization of the Extracellular Domain of Human Sid-1” (PLoS ONE, 2012).
Results are given in words; binding and its absence hold for the method and conditions named. In cells and extracts the contact can be indirect. A result given as binding can be weak or reduced; the word gives no strength.

Amino acid sequences for entries named in this document (tags omitted). A change or cut given only in a name is not applied to a line headed by its entry.
UniProt Q9NXL6: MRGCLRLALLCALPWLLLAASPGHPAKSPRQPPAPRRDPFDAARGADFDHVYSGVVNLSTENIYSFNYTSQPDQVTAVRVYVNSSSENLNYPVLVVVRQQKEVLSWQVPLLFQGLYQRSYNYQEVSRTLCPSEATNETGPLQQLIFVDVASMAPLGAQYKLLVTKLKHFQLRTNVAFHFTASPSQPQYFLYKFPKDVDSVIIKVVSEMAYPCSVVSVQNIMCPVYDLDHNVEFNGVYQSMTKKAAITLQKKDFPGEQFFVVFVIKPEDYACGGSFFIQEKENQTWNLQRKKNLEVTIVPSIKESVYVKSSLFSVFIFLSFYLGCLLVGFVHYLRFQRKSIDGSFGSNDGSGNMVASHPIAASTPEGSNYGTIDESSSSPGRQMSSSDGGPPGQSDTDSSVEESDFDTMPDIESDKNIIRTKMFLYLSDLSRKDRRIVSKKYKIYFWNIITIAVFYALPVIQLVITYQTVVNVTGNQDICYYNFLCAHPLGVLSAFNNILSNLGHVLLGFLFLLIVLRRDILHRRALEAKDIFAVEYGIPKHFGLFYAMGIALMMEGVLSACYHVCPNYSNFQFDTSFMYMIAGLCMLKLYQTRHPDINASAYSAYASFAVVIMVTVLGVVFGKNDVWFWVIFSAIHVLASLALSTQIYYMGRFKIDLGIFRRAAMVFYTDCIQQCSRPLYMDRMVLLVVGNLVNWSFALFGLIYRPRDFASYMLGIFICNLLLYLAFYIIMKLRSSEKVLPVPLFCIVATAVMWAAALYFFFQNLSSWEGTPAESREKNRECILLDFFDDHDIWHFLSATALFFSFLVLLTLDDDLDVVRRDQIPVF
UniProt Q9GZC8: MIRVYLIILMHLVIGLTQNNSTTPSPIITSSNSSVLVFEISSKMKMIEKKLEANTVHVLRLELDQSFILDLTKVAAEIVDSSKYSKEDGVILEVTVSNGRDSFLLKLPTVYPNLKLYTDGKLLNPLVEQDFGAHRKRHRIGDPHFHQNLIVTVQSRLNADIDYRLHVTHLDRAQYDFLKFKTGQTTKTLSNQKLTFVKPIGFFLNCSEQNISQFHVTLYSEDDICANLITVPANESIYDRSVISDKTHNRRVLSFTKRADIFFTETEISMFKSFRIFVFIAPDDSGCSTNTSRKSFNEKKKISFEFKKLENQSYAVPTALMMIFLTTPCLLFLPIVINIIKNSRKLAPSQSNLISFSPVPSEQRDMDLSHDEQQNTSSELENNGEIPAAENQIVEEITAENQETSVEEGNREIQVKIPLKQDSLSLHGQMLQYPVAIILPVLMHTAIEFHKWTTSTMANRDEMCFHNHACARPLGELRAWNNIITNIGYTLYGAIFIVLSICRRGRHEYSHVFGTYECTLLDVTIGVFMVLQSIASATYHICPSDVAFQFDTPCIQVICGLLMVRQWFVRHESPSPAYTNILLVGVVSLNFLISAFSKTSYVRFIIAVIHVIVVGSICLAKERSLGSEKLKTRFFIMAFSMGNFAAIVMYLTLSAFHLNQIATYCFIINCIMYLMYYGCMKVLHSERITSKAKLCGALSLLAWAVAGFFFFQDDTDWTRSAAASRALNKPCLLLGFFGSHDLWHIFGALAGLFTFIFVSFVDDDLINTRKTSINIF
UniProt Q8NBJ9: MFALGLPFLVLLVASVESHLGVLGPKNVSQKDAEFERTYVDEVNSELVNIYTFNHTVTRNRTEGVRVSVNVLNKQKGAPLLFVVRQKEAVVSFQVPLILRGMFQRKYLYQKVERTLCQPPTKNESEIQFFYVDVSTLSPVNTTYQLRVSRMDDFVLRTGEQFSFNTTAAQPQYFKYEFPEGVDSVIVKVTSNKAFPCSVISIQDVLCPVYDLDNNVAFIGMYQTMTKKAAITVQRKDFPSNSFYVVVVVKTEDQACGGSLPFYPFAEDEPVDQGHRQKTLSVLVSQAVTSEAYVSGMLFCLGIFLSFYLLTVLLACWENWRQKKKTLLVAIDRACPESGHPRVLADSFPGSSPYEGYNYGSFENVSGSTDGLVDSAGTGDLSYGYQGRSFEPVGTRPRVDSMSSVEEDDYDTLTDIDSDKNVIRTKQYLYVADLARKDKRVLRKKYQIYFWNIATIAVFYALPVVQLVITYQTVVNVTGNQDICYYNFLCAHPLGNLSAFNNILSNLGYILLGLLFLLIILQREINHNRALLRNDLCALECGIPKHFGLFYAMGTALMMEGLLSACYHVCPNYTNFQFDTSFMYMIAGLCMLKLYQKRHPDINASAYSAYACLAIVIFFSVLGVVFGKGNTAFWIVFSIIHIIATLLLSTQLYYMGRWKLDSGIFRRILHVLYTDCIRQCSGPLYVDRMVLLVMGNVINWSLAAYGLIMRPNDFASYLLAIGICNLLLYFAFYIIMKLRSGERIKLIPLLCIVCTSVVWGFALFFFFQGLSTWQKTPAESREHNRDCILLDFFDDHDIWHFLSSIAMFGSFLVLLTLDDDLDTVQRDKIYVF
UniProt P0A6F5: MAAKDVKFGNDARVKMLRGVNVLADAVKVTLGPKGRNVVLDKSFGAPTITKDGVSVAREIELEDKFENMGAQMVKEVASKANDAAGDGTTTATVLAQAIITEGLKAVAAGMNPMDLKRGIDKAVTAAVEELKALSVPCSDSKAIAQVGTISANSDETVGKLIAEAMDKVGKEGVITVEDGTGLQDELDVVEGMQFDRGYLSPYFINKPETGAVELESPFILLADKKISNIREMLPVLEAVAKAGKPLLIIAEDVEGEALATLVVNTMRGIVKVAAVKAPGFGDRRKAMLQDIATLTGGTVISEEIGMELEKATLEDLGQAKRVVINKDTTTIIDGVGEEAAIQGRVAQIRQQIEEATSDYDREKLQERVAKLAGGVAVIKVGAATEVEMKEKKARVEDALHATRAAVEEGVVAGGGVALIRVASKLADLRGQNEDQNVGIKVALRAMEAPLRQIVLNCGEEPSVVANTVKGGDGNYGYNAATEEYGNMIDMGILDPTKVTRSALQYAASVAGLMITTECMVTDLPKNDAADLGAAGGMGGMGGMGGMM

Assays:
Experiment in all cases: co-purification; MBP-ECD fusions expressed in E. coli and purified; GroEL of the host found with them
[1] = target: MBP fusion of the ECD of human SidT1 (AAI17223), made in E. coli (human) (UniProt Q9NXL6)
[2] = target: MBP fusion of the ECD of C. elegans Sid-1 (NP_504372), made in E. coli (C. elegans) (UniProt Q9GZC8)
[3] = target: MBP fusion of the ECD of human SidT2 (AAI14523), made in E. coli (human) (UniProt Q8NBJ9)

Measured: binding

chaperone GroEL (from UniProt P0A6F5 1-548)
binds: [1] | [2] | [3]
